Reference: PubChem BioAssay AID540256 (National Center for Advancing Translational Sciences (NCATS), 2011)
In all, about 300,000 compounds went through this assay and about 3,700 (1.2%) were called active. A call without a number means that no potency is given here. This list was built around the results that the source calls inconclusive (neither active nor inactive); the mix of calls is not that of the screen. Calls come from the whole dose curve; tested in HEK293 cells. Potencies of inconclusive entries are doubtful fits and often do not repeat.

Experiment: qHTS for Inhibitors of binding or entry into cells for Lassa Virus; note: nearly all actives have a fitted effect of over 50% in size
Conditions: Lassa virus pseudotype entry inhibition, cell reporter; series mostly up to 37.9 µM
Potency is the fitted concentration of half-maximal effect.

Compound | Potency
Cc1ccc(CS/C(Nc2ccccc2C)=C(\C#N)C(=O)NCc2ccco2)c(C)c1 | active: 3.66 µM
Cc1ccc(OCC(=O)N(C)CC(=O)Nc2cccc(F)c2)cc1 | inconclusive: 3.55 µM [activator, partial curve, poor fit]
Cc1ccc(CNC(=O)c2ccc3c(c2)NC(=O)C(N2CCOCC2)S3)cc1 (configuration not stated) | inconclusive: 11.2 µM [inhibitor, partial curve, poor fit]
CCC(C)NC(=O)c1ccc2c(c1)sc1nc(-c3ccc(OC)cc3)cn12 (configuration not stated) | inactive
COc1ccc(Cl)cc1NC(=O)CN(C)C(=O)Cn1cnc2c1c(=O)n(C)c(=O)n2C | inactive
c1ccc2c(c1)C(=Nn1cnnc1)c1ccccc1-2 | inconclusive: 1.46 µM [inhibitor, full curve, poor fit]
COC(=O)c1sccc1S(=O)(=O)N(CC(=O)Nc1cc(C)ccc1C)c1ccc(C)c(C)c1 | inconclusive: 8.91 µM [inhibitor, partial curve, poor fit]
O=C(N1CCCCCC1)N1CC1 | inconclusive: 31.6 µM [activator, single point]
Cc1cc(Cl)ccc1OCCCC(=O)N1CCN(C(=O)c2ccco2)CC1 | inactive
O=C(NCC(c1cccs1)S(=O)(=O)c1cccs1)c1ccc(F)c(F)c1 (configuration not stated) | inactive
COc1ccc(S(=O)(=O)N2CCC(C(=O)NC(C)CCc3ccccc3)CC2)cc1 (configuration not stated) | inconclusive: 35.5 µM [inhibitor, single point]
CCOc1ccc(CCNC(=O)c2ccc3c(c2)N(Cc2ccc(F)cc2)CCS3)cc1 | inactive
O=C(O)c1sc(Nc2ccccc2)nc1-c1ccccc1 | inactive
CCOC(=O)COc1ccccc1/C=C1/NC(=O)NC1=O | inactive
CC(C)NC(=O)CSc1nnc(-c2ccco2)n1N | inactive
CCCCCN1N=C(C)CC1=O | active: 2 µM
Cc1cc(C(=O)OCCN2C(=O)c3ccccc3C2=O)c2ccccc2n1 | inactive
O=C(O)CCC(=O)NNC(=O)COc1ccc2ccccc2c1Br | inconclusive: 5.01 µM [activator, single point]
N#CCCn1cc(C(=O)CN2C(=O)C(=O)N(C3CCCC3)C2=O)c2ccccc21 | inactive
CN(C)c1ccc(C=NNC(=S)Nc2ccc(F)cc2)cc1 | inconclusive: 10 µM [inhibitor, partial curve, poor fit]
CCC(CC)C(=O)N1c2ccccc2C(C)(c2ccccc2)CC1(C)C (configuration not stated) | inconclusive: 1.41 µM [activator, partial curve, poor fit]
COC(=O)CN1C(=O)CSc2ccc(S(=O)(=O)Nc3ccc(F)c(Cl)c3)cc21 | inactive

Two compounds drawn at random from those above:
Compound | Potency
CCOc1ccc(CCNC(=O)c2ccc3c(c2)N(Cc2ccc(F)cc2)CCS3)cc1 | inactive
O=C(O)c1sc(Nc2ccccc2)nc1-c1ccccc1 | inactive
